Values quoted from earlier work in paper PMC9610999, “Itraconazole-Induced Increases in Gilteritinib Exposure Are Mediated by CYP3A and OATP1B” (Molecules, 2022).

How the values were obtained:
[1] = test system: OATP1B1 uptake vs CYP3A metabolism; conditions: OATP1B1 hepatic uptake vs CYP3A metabolism; cited from earlier work
[2] = cited from earlier work

## CC(C)c1c(C(=O)Nc2ccccc2)c(-c2ccccc2)c(-c2ccc(F)cc2)n1CC[C@@H](O)C[C@@H](O)CC(=O)O [atorvastatin]
[1]
  Sensitivity to inhibition of uptake transport relative to the metabolic pathway: ~ 6 fold
[2]; co-administered with a single dose of rifampicin (an OATP1B inhibitor)
  Increase in dose-normalized AUC of atorvastatin: 12 fold
[2]; pre-treatment with itraconazole
  Change in dose-normalized AUC of atorvastatin: did not change
